This is an account of results in paper PMC7367685, “Reconstitution reveals two paths of force transmission through the kinetochore” (eLife, 2020).

By UniProt entry, the sequences of proteins in these tests, tags left out.
UniProt P35201: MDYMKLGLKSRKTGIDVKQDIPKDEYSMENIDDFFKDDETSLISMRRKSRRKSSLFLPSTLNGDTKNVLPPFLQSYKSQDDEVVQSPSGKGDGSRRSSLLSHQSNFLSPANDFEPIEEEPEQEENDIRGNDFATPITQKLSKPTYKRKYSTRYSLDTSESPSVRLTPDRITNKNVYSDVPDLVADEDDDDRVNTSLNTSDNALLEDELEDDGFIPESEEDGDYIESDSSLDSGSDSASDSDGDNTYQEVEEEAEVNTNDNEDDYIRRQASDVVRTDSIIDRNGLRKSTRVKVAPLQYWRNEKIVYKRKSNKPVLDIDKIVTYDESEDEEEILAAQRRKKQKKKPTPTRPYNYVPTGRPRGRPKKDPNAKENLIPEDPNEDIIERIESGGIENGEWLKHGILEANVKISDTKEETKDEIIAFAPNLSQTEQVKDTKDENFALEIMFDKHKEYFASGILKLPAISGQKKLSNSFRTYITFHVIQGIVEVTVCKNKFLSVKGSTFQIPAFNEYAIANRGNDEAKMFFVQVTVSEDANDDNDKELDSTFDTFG

No constants are given. Whether binding was seen depends on the method and setting. Some binding calls cover weakened binding; strength is not graded here. Sequences can lack the tags named with a protein.

Test [1] has as its target Mif2-linker-(27-392)MBP (S. cerevisiae) (UniProt P35201). The experiment in a line: optical trap bead-microtubule attachment assay (self-assembly and microtubule binding); one His6-tagged subcomplex on anti-His5 polystyrene beads (10 nM on 3.5 pM beads), the other subcomplexes free at 10 nM each; the bead was brought to a single growing microtubule with the laser trap, and a bead whose contact did not persist with the laser off counted as a nonbinder; no external force; BRB80 growth buffer with 1 mM GTP, room temperature; in negative controls one subcomplex was omitted; both purified.

Test [2] shares this target. The experiment in a line: optical trap force-ramp rupture assay; same beads and free proteins (10 nM each) as the attachment assay; bead on a growing microtubule tip, 1 pN preload, then a ramp of 0.25 pN/s until detachment; median rupture force of the whole chain; not single-molecule conditions; room temperature; both purified.

B1: 2D-MIND complex (FLAG-Nsl1, S240D, S250D-Dsn1, Mtw1, Nnf1) (complex, S. cerevisiae)
chain 1: MSQGQSKKLDVTVEQLRSIYHQFHDILEEKTDLHLPKKEYDDDAVRREVQIQLQEFLLSAMTMASKSLEVVNADTVGKTVKQLIMESQEKYMEPFDLDLNEQVRKMYQEWEDETVKVAQLRQTGPAKINEVYNNSKDEYLAQLDGRIGVLQARMMQQQSADHDDSTDDADDHINWEHIKQDYVASLNELYQTQQDLPKVRYNVEKVKRLMDFLEED
chain 2: MSLEPTQTVSGTPPMLHQRTHKQVYPLRMETIPILESDSKATLQSNEPTQKDEEETEYFENKQSVSNLSPDLKFKRHKNKHIQGFPTLGERLDNLQDIKKAKRVENFNSSAPIADDNHSGDATANATANATANATANVNASAMPAPYMPYYYYYHPMNAPTPAMIPYPGSPMHSIMPNSSLQPFYSQPTAAGGPDMTTPQNISSSQQLLPAPQLFPYGSFHQQQLQQPHYIQRTRERKKDIGSQRGRRLDMLASQANGGSTIISPHKDIPEEDFYTVVGNASFGKNLQIRQLFNWCLMRSLHKLELKAKNQEEEGELEHLTKKSKLESTKAETDYVDPKRLAMVIIKEFVDDLKKDHIAIDWEDEEKYEDEDEEKILDNTENYDDTELRQLFQENDDDDDDDDEVDYSEIQRSRRKFSERRKALPKEPKKLLPNSKNVENTKNLSILTSKVNAIKNEVKEWAVTLDTSRPDLEWQELTSFSSQPLEPLSDTEEPDLAIADVETKLETKVDELRYQSHILNSHSLALNEITNSKVNKLNIETMRKISSETDDDHSQVINPQQLLKGLSLSFSKKLDL
chain 3: MSAPTMRSTSILTEHLGYPPISLVDDIINAVNEIMYKCTAAMEKYLLSKSKIGEEDYGEEIKSGVAKLESLLENSVDKNFDKLELYVLRNVLRIPEEYLDANVFRLENQKDLVIVDENELKKSEEKLREKVNDVELAFKKNEMLLKRVTKVKRLLFTIRGFKQKLNELLKCKDDVQLQKILESLKPIDDTMTLLTDSLRKLYVDSESTSSTEEVEALLQRLKTNGKQNNKDFRTRYIDIRTNNVLRKLGLLGDKEDEKQSAKPDARTQAGDIVSIDIEEPQLDLLDDVL
chain 4: MVNSHGIRYIRLKQVFNRALDQSISKLQSWDKVSSCFPQYVNSKQGAINVANCQRQLTEFWTELCQREFKEIMEERNVEQKLNELDELILEAKERYTDRDQDEVNKGPAIDELSSKELVECHLYSQRMHAIHEIDERLAKVNEMNDQLAQELKDLETQVEVEKNEIGKMYDEYLGSHTDQPANVLLVQSLNDMVLELKENY
notes: Nsl1, S. cerevisiae; Dsn1, S. cerevisiae, with two phosphomimetic substitutions; Mtw1, S. cerevisiae; Nnf1, S. cerevisiae; also called phosphomimetic MIND; pGH62; copies: + + +
Take B1: the binding result in test [1] and in test [2] was “binds” throughout.
